Results reported in publication PMC10897203.
These are yes or no findings as the source states them, for the method shown. In cells and extracts the contact can be indirect. Here binding means that the protein was enriched with, or labelled near, the bait; the list need not be complete. Where a sequence is shown, tags or fusion partners need not be part of it.

Chains of the proteins cited; added tags and fusions are not shown.
UniProt P61765: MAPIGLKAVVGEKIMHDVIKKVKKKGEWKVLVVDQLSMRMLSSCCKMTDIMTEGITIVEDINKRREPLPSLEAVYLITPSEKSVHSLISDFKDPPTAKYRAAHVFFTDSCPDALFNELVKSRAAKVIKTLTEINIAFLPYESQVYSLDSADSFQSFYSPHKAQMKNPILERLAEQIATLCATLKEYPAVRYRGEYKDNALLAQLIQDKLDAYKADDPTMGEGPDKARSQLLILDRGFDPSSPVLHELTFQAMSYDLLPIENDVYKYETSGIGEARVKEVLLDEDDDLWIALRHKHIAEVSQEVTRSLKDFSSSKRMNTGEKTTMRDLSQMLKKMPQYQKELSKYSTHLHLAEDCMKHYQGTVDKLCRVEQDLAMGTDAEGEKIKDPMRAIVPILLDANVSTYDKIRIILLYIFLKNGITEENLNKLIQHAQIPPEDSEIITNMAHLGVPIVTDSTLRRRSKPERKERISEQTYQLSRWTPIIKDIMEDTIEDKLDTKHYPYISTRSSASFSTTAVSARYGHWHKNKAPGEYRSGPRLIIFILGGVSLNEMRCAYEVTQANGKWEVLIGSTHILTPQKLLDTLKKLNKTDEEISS
UniProt O35274: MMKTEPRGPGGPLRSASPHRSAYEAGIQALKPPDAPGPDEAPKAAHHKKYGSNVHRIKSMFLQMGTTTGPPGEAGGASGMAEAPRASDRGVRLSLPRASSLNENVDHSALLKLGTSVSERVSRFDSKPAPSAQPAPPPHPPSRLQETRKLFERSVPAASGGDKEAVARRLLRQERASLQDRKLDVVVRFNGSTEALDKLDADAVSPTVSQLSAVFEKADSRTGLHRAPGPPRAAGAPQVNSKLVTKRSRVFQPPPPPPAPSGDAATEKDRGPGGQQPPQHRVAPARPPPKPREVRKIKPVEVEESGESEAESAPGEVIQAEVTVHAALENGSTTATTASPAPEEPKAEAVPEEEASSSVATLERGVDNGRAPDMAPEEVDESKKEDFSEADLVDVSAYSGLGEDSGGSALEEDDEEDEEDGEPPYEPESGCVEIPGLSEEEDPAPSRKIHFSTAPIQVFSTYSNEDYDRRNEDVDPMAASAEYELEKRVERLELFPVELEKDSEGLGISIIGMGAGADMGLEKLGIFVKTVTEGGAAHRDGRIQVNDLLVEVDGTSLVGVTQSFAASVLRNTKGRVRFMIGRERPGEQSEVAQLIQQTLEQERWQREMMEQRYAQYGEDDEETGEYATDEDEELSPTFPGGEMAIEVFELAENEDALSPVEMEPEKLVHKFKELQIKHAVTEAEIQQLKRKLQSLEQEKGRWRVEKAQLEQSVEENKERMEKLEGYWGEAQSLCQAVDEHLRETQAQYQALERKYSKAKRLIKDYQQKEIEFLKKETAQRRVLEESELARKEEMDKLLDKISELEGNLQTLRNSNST

Molecular target: T1, GFP-DDHD2 (pEGFP-C1-DDHD2^WT) (UniProt O94830)
T1 sequence: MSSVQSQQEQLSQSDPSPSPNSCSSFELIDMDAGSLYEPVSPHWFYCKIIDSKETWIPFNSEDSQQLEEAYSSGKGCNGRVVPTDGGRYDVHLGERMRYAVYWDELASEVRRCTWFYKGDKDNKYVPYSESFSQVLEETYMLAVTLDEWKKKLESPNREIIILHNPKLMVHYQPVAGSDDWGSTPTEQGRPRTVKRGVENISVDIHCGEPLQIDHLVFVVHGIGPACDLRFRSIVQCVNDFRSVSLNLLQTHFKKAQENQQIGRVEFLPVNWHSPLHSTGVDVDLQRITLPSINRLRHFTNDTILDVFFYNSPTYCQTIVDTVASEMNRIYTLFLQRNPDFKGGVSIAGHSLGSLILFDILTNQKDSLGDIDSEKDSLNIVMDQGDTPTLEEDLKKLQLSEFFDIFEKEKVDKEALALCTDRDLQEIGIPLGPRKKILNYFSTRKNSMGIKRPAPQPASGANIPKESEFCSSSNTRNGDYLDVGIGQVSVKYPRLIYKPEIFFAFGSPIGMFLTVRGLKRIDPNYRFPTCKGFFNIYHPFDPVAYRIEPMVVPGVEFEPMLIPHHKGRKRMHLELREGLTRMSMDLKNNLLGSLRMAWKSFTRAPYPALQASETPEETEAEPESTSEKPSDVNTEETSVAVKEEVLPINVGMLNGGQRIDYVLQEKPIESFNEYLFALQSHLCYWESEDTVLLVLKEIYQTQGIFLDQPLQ
Assay: affinity purification with mass spectrometry; anti-GFP magnetic beads on lysate (0.5% NP-40, 150 mM NaCl) of PC12 cells transfected with GFP-tagged DDHD2, resting state; tryptic digest, untargeted high-resolution tandem MS (HRMS), 1% FDR; proteins found in non-GFP process controls removed

Question: For “Syntaxin-binding protein 1 (STXBP1), endogenous in PC12 cells (from UniProt P61765 1-594)”, which binding is on record?
Answer: binds

Question: Which binding does the source give for “Ppp1r9b, endogenous in PC12 cells (from UniProt O35274 1-817)” here?
Answer: binds
